Results on 1 compound are retold here after ChEMBL document CHEMBL4219041, “Improving oral bioavailability of cyclic peptides by N-methylation” (Bioorg Med Chem, 2018).

For orientation: bioavailability means the share of a dose that reaches the circulation, judged against a reference dose that is usually intravenous.

This series in a line: in vivo. The note with it: Wistar, rat, po, 10 mg/kg.

The compound `CC[C@H](C)[C@@H]1NC(=O)[C@@H]2CCCN2C(=O)[C@H](Cc2ccccc2)NC(=O)[C@H](C(C)(C)C)NC(=O)c2csc(n2)[C@H]([C@@H](C)CC)NC(=O)[C@@H]2CCCN2C1=O` came in with a bioavailability of 51%.
